# Screening data

From PubChem BioAssay record AID1159506 (NCATS, 2015).

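Luminescence from an EWS-FLI1 target-promoter (NR0B1) reporter, set against a CMV-promoter reporter, two days after silencing single genes in TC32 Ewing sarcoma cells. Each siRNA was applied at 20 nM. A z-score of the log NR0B1-over-CMV signal, less the median of siRNAs with the same seed; more negative means a stronger specific loss of the NR0B1 reporter.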

This is part of the screen; most of the strongest results are not listed here. Sequences are the guide (antisense) strand, without overhang.

siRNA,target gene,seed-corrected z-score
UUGACAUACAUCACAGGCU,RPS12P9,-0.3714
UUCGUGUCCGCUCCACUUG,ACOT8,0.2748
AACUGGGUACCGAUGAUGC,MPO,-0.1353
AAUCGUGUCAUAGAGGUGA,RAB29,-0.4394
UUAGUGAAGACUGCCGGGU,EEF2KMT,0.8682
UUUCCUCUUGCUUUGAUGG,IVL,-0.3646
UAUAGCACAACUUAUAUAU,UBE2V1,0.3977
UACACUAGCAAAUUCAGGC,SLC30A1,0.06751
UGAUCGACAAGGCAGGUGU,HLA-DOB,-0.1362
UUUCCGAACAUAGGGAUCC,AP2B1,-0.6634
AUAGUUCUUAGUAUUAGAG,CCDC117,0.2074
AUAAAGGUCAGUUCCAUCC,C8orf58,0.3962
UGAAUUUCAAGAACUUGCU,MRGPRD,-1.143
AUCGUCAUCGUUACUGUGC,EIF4B,-0.3193
UCCUUGUACGGGAACAGGC,HDGFL1,1.108
AGGCUUAUCAAAAUGCUCC,SOX3,-0.05366
UCUGCCCACAUACUGGUGC,C1QL1,0.02271
AUGAGGACCAGGUAGGUGU,MC3R,-0.1103
UUGCUAUCUAAGAUCUCCC,NT5C,0.5669
UAGGCUAUGACUGUGGAGG,SSH1,-0.3674
UCAGAGAUCGGAGAGUCUG,NRIP3,0.2515
UCCUGGGUCAUAGUUGUUG,CHRNE,0.3887
UAAUUGAUUCGGAAGUACC,TMUB2,0.4225
AGGUGUAUCAUCCCAGUCC,SBF2,-0.4359
UCUAGUAUCUGAACAUCGC,ACADM,-0.2158
AGUGAUUGCUCUUUUCUUC,C1orf162,1.139
UGCUGGAUGAUGGACGUGG,NFIX,-0.7966
UGAAUCAUGACUCAAGGUC,ZNF582,-0.2964
UUCUUUUGUGACUUGGUUC,ADCY2,-1.524
AACUGAAACAGUGUUCGGG,ABTB2,-0.1654
UCAUGGGAUAGUAGUAGCU,LENG8,-0.2603
UUGCUUUGAAAUAGCAUUG,ZCCHC8,-0.437
UCCAGGAUUUGCAUAGUGU,CAPN15,0.1033
UAUCGUUCACCAAUAUUCC,ZCCHC8,-0.2588
UAUCACUAGAUGUAGAGGC,JMJD1C,0.1545
UUUGCGAACUGUCUUGUUC,GPR161,0.0657
AUCUACUUCAAUAAUCUCC,RPS17,0.7598
ACUAGUCUCAAAGUUAUCC,CATSPERD,-0.1563
UUAGGAUCAUUCAACCUUG,KCMF1,0.739
UUCAUUCACAGAUUCGUAG,ERH,-0.7324
AAGUUCACCACUUCAAUUC,ERLIN2,0.1909
UCAUUGAUGAGGGCCGAUG,SEMA3F,-0.4317
UGGGUUCUUAUCAGGAUGG,DNAJA1,-1.383
UGACCGUUGAGAUUCUGCG,CFAP74,0.2194
UUAAACUCCAUACAGUAUC,SBSPON,-0.07183
UUUCUAUCAAACCUGUAGC,WASF1,0.4973
UUAGUCUCGAACCUGUCCU,GRIFIN,-1.869
UAAUGAGCCCGGCCUCUUG,PRRG2,-0.1629

Repeated from the top, 3 entries:

siRNA,target gene,seed-corrected z-score
UUGACAUACAUCACAGGCU,RPS12P9,-0.3714
UUCGUGUCCGCUCCACUUG,ACOT8,0.2748
AACUGGGUACCGAUGAUGC,MPO,-0.1353